Data published in patent US20170189504A1, “NOVEL PEPTIDES AND COMBINATION OF PEPTIDES FOR USE IN IMMUNOTHERAPY AGAINST VARIOUS CANCERS” (immatics biotechnologies GmbH, priority 2015, published 2017).

Key:
HLA-A*02 = assay: Identification and relative LC-MS quantitation of HLA-A*02-presented tumor-associated peptides on tissue samples (presentation profiles, Tables 13A, 13B, 15, FIG. 1); parameters: species or system human; key to Presentation score NHL / Presentation score CLL / Presentation score BRCA / Presentation score AML / Presentation score GB / Presentation score NSCLC / Presentation score GBC_CCC / Presentation score UEC / Presentation score MEL / Presentation score OSCAR / Presentation score GC / Presentation score UBC / Presentation score OC / Presentation score RCC / Presentation score CRC / Presentation score PCA / Presentation score HCC / Presentation score PC / Presentation score SCLC: specifically presented on tumors (++++); very highly over-presented on tumors compared to a panel of normal tissues (+++); highly over-presented on tumors compared to a panel of normal tissues (++); over-presented on tumors compared to a panel of normal tissues (+); settings: for Presentation score OSCAR: esophageal cancer, including cancer of the gastric-esophageal junction (N = 17) vs panel of normal tissues (N = 262); for Presentation score GC: gastric cancer (N = 29) vs panel of normal tissues (N = 262); for Presentation score NSCLC: non-small cell lung cancer (N = 90) vs panel of normal tissues (N = 262); for Peptide Presentation on cancer entities: HLA-A*02-binding tumor-associated peptides
source genes (mRNA) [1] = assay: Gene and exon expression of source genes, TCGA tumor samples compared with normal tissue samples (Lonsdale, 2013) (Table 17); parameters: species or system human; settings: for Target coverage: over-expression category of source gene, LAML: Acute Myeloid Leukemia (N = 173); for Target coverage: over-expression category of source gene, BLCA: Bladder urothelial carcinoma (N = 408); for Target coverage: over-expression category of source gene, BRCA: Breast cancer (N = 1104), cutoff more than 2-fold above highest 75% percentile of high and medium risk normal tissue samples; for Target coverage: over-expression category of source gene, KIRC: Clear cell kidney carcinoma (N = 534); for Target coverage: over-expression category of source gene, ESCA: Esophageal cancer (N = 185); for Target coverage: over-expression category of source gene, LUAD: Lung adenocarcinoma (N = 517); for Target coverage: over-expression category of source gene, LUSC: Lung squamous cell carcinoma (N = 503); for Target coverage: over-expression category of source gene, OV: Ovarian serous cystadenocarcinoma (N = 309); for Target coverage: over-expression category of source gene, KIRP: Papillary kidney carcinoma (N = 291); for Target coverage: over-expression category of source gene, SKCM: Skin cutaneous melanoma (N = 473); for Target coverage: over-expression category of source gene, STAD: Stomach adenocarcinoma (N = 415); for Target coverage: over-expression category of source gene, UCEC: Uterine corpus endometrial carcinoma (N = 546); for Target coverage: over-expression category of source gene, PRAD: Prostate adenocarcinoma (N = 498); for Target coverage: over-expression category of source gene, GBM: Glioblastoma multiforme (N = 169); for Target coverage: over-expression category of source gene, LGG: Lower grade glioma (N = 534); for Target coverage: over-expression category of source gene, DLBC: Lymphoid neoplasm diffuse large B-cell lymphoma (N = 48)
source genes (mRNA) [2] = assay: Expression profiling of source genes by in-house RNASeq of tumor and normal tissues (Table 18, FIG. 2); parameters: species or system human; key: very highly over-expressed in tumors compared to a panel of normal tissues (+++); highly over-expressed in tumors compared to a panel of normal tissues (++); over-expressed in tumors compared to a panel of normal tissues (+); settings: source gene of peptide; for Expression score OSCAR: esophageal cancer incl. gastric-esophageal junction (N = 11) vs panel of normal tissues; for Expression score GB: glioblastoma (N = 24) vs panel of normal tissues; for Expression score NSCLC: non-small cell lung cancer (N = 11) vs panel of normal tissues; for Expression score OC: ovarian cancer (N = 12) vs panel of normal tissues; for Expression score UBC: urinary bladder cancer (N = 10) vs panel of normal tissues; for Expression score UEC: uterine cancer (N = 10) vs panel of normal tissues
[3] = Table 13A, cancer entities on which the peptide was found presented
[4] = Table 13B, presentation on additional cancer entities
[5] = cutoff more than 2-fold above highest 75% percentile of normal tissue samples

Substance	Presentation score OSCAR (HLA-A*02; HLA-A*02 peptides)	Presentation score GC (HLA-A*02; HLA-A*02 peptides)	Presentation score NSCLC (HLA-A*02; HLA-A*02 peptides)	Peptide Presentation on cancer entities (HLA-A*02; [3])	Peptide Presentation on cancer entities (HLA-A*02; [4])	Target coverage: over-expression category of source gene, LAML (source genes (mRNA) [1]; [5])	Target coverage: over-expression category of source gene, BLCA (source genes (mRNA) [1]; [5])	Target coverage: over-expression category of source gene, BRCA (source genes (mRNA) [1])	Target coverage: over-expression category of source gene, KIRC (source genes (mRNA) [1]; [5])	Target coverage: over-expression category of source gene, ESCA (source genes (mRNA) [1]; [5])	Target coverage: over-expression category of source gene, LUAD (source genes (mRNA) [1]; [5])	Target coverage: over-expression category of source gene, LUSC (source genes (mRNA) [1]; [5])	Target coverage: over-expression category of source gene, OV (source genes (mRNA) [1]; [5])	Target coverage: over-expression category of source gene, KIRP (source genes (mRNA) [1]; [5])	Target coverage: over-expression category of source gene, SKCM (source genes (mRNA) [1]; [5])	Target coverage: over-expression category of source gene, STAD (source genes (mRNA) [1]; [5])	Target coverage: over-expression category of source gene, UCEC (source genes (mRNA) [1]; [5])	Expression score OSCAR (source genes (mRNA) [2])	Expression score GB (source genes (mRNA) [2])	Expression score NSCLC (source genes (mRNA) [2])	further results
63: peptide found in PRRC2C (gene looked up) (SQIPAQPSV; listed as Homo sapiens) [compound 63]	++++	++++	++++	GC, NSCLC, OSCAR	AML, HNSCC	A (>=50% of tumors above the cutoff)	C (>=5% of tumors above the cutoff, but <20%)	B (>= 20% of tumors above the cutoff, but <50%)	C (>=5% of tumors above the cutoff, but <20%)	A (>=50% of tumors above the cutoff)	B (>= 20% of tumors above the cutoff, but <50%)	C (>=5% of tumors above the cutoff, but <20%)	A (>=50% of tumors above the cutoff)	C (>=5% of tumors above the cutoff, but <20%)	C (>=5% of tumors above the cutoff, but <20%)	A (>=50% of tumors above the cutoff)	C (>=5% of tumors above the cutoff, but <20%)	+	+	+	Expression score BRCA (source genes (mRNA) [2]; BRCA tumors vs panel of normal tissues): +; Expression score CLL (source genes (mRNA) [2]; chronic lymphocytic leukemia (N = 10) vs panel of normal tissues): +; Expression score GBC_CCC (source genes (mRNA) [2]; gallbladder adenocarcinoma and cholangiocarcinoma (N = 3) vs panel of normal tissues): +; Expression score OC (source genes (mRNA) [2]): +; Expression score RCC (source genes (mRNA) [2]; renal cell carcinoma (N = 10) vs panel of normal tissues): +; Expression score SCLC (source genes (mRNA) [2]; small cell lung cancer (N = 10) vs panel of normal tissues): +; Expression score UBC (source genes (mRNA) [2]): +; Expression score UEC (source genes (mRNA) [2]): +
64: peptide found in STEAP2 (gene looked up) (SLFPDSLIV; listed as Homo sapiens) [compound 64]				PCA	NSCLC, HCC, BRCA, PC			C (>=5% of tumors above the cutoff, but <20%)		C (>=5% of tumors above the cutoff, but <20%)						C (>=5% of tumors above the cutoff, but <20%)				+	Presentation score PCA (HLA-A*02; HLA-A*02 peptides, prostate cancer and benign prostate hyperplasia (N = 39) vs panel of normal tissues (N = 262)): ++++; Target coverage: over-expression category of source gene, PRAD (source genes (mRNA) [1]; [5]): A (>=50% of tumors above the cutoff); Expression score PCA (source genes (mRNA) [2]; prostate cancer and benign prostate hyperplasia (N = 5) vs panel of normal tissues): +++
65: peptide found in SMARCE1 (gene looked up) (SVVPDVRSV; listed as Homo sapiens) [compound 65]	++++	++++	++++	GC, NSCLC, OSCAR		A (>=50% of tumors above the cutoff)	A (>=50% of tumors above the cutoff)	A (>=50% of tumors above the cutoff)	A (>=50% of tumors above the cutoff)	A (>=50% of tumors above the cutoff)	A (>=50% of tumors above the cutoff)	A (>=50% of tumors above the cutoff)	A (>=50% of tumors above the cutoff)	A (>=50% of tumors above the cutoff)	A (>=50% of tumors above the cutoff)	A (>=50% of tumors above the cutoff)	A (>=50% of tumors above the cutoff)	++	+		Target coverage: over-expression category of source gene, CHOL (source genes (mRNA) [1]; Cholangiocarcinoma (N = 36), cutoff more than 2-fold above highest 75% percentile of normal tissue samples): A (>=50% of tumors above the cutoff); Target coverage: over-expression category of source gene, READ (source genes (mRNA) [1]; Colon and rectal adenocarcinoma (N = 167), cutoff more than 2-fold above highest 75% percentile of normal tissue samples): A (>=50% of tumors above the cutoff); Target coverage: over-expression category of source gene, COAD (source genes (mRNA) [1]; Colon and rectal adenocarcinoma (N = 462), cutoff more than 2-fold above highest 75% percentile of normal tissue samples): A (>=50% of tumors above the cutoff); Target coverage: over-expression category of source gene, GBM (source genes (mRNA) [1]; [5]): A (>=50% of tumors above the cutoff); Target coverage: over-expression category of source gene, KICH (source genes (mRNA) [1]; Kidney chromophobe (N = 66), cutoff more than 2-fold above highest 75% percentile of normal tissue samples): A (>=50% of tumors above the cutoff); Target coverage: over-expression category of source gene, LIHC (source genes (mRNA) [1]; Liver hepatocellular carcinoma (N = 374), cutoff more than 2-fold above highest 75% percentile of normal tissue samples): A (>=50% of tumors above the cutoff); Target coverage: over-expression category of source gene, LGG (source genes (mRNA) [1]; [5]): A (>=50% of tumors above the cutoff); Target coverage: over-expression category of source gene, DLBC (source genes (mRNA) [1]; [5]): A (>=50% of tumors above the cutoff); Target coverage: over-expression category of source gene, PAAD (source genes (mRNA) [1]; Pancreatic ductal adenocarcinoma (N = 179), cutoff more than 2-fold above highest 75% percentile of normal tissue samples): A (>=50% of tumors above the cutoff); Target coverage: over-expression category of source gene, PRAD (source genes (mRNA) [1]; [5]): A (>=50% of tumors above the cutoff); Expression score NHL (source genes (mRNA) [2]; non-Hodgkin lymphoma (N = 10) vs panel of normal tissues): +; Expression score OC (source genes (mRNA) [2]): +++; Expression score UBC (source genes (mRNA) [2]): +; Expression score UEC (source genes (mRNA) [2]): +
71: peptide found in PLD4 (gene looked up) (VLHSKFWVV; listed as Homo sapiens) [compound 71]				CLL, NHL		A (>=50% of tumors above the cutoff)			C (>=5% of tumors above the cutoff, but <20%)										+		Presentation score CLL (HLA-A*02; HLA-A*02 peptides, chronic lymphocytic leukemia (N = 17) vs panel of normal tissues (N = 262)): ++++; Presentation score NHL (HLA-A*02; HLA-A*02 peptides, non-Hodgkin lymphoma (N = 18) vs panel of normal tissues (N = 262)): ++++; Target coverage: over-expression category of source gene, GBM (source genes (mRNA) [1]; [5]): B (>= 20% of tumors above the cutoff, but <50%); Target coverage: over-expression category of source gene, LGG (source genes (mRNA) [1]; [5]): B (>= 20% of tumors above the cutoff, but <50%); Target coverage: over-expression category of source gene, DLBC (source genes (mRNA) [1]; [5]): C (>=5% of tumors above the cutoff, but <20%); Expression score AML (source genes (mRNA) [2]; acute myeloid leukemia (N = 11) vs panel of normal tissues): +

For some of these results: Expression values are those of the mRNA of the gene that encodes the peptide; a gene is named only where it was looked up.
